{"source": "PubChem BioAssay AID504784 (Drosophila RNAi Screening Center, 2011)", "assay": "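Genome-wide knock-down for genes giving too much or too little stored lipid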 (primary screen)", "cells": "Drosophila Kc167 embryonic cells", "reagents": "long dsRNA against Drosophila genes, about 250 ng dsRNA per well", "duration": "4 days", "conditions": "cells fed 400 µM oleic acid bound to BSA", "measured": "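Cells imaged and segmented; ratio of lipid droplet area to nuclear area, log-transformed, then normalised as a B-score over the screen; higher means more stored lipid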", "reading the numbers": "droplet/nuclear area B-score: higher = more stored lipid (overstorage)", "note": "The screen tested about 17,000 reagents; this is a random part of those with a known target gene and a result. 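Each column is one replicate's B-score; the combined score over replicates was not deposited, so single values may mislead.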 Names joined by + are all predicted targets of the reagent. Further read-outs or replicates are left out here."}
{"target": "Reg-5 (Rhythmically expressed gene 5)", "DRSC id": "DRSC04647", "droplet/nuclear area B-score, replicate 1": -2}
{"target": "sca (scabrous)", "DRSC id": "DRSC07677", "droplet/nuclear area B-score, replicate 1": -1.03}
{"target": "CG7702", "DRSC id": "DRSC16293", "droplet/nuclear area B-score, replicate 1": 1.94}
{"target": "Obp57e (Odorant-binding protein 57e)", "DRSC id": "DRSC05891", "droplet/nuclear area B-score, replicate 1": 0.0743}
{"target": "Gr94a (Gustatory receptor 94a)", "DRSC id": "DRSC13597", "droplet/nuclear area B-score, replicate 1": -1.78}
{"target": "CG16756", "DRSC id": "DRSC18115", "droplet/nuclear area B-score, replicate 1": -2.35}
{"target": "RpS3A (Ribosomal protein S3A)", "DRSC id": "DRSC17168", "droplet/nuclear area B-score, replicate 1": 3.22}
{"target": "CG5644", "DRSC id": "DRSC10531", "droplet/nuclear area B-score, replicate 1": -0.971}
{"target": "CG2218", "DRSC id": "DRSC15428", "droplet/nuclear area B-score, replicate 1": -2.13}
{"target": "CG13678", "DRSC id": "DRSC10036", "droplet/nuclear area B-score, replicate 1": -0.00466}
{"target": "Kyat (Kynurenine aminotransferase)", "DRSC id": "DRSC16147", "droplet/nuclear area B-score, replicate 1": 2.12}
{"target": "HDAC3 (Histone deacetylase 3)", "DRSC id": "DRSC12352", "droplet/nuclear area B-score, replicate 1": 1.95}
{"target": "CG2772", "DRSC id": "DRSC00530", "droplet/nuclear area B-score, replicate 1": 0.0538}
{"target": "Naxe (NAD(P)HX epimerase)", "DRSC id": "DRSC18251", "droplet/nuclear area B-score, replicate 1": 0.813}
{"target": "CG13064", "DRSC id": "DRSC09947", "droplet/nuclear area B-score, replicate 1": -0.236}
{"target": "CG4872", "DRSC id": "DRSC19921", "droplet/nuclear area B-score, replicate 1": -2.17}
{"target": "bel (belle)", "DRSC id": "DRSC16555", "droplet/nuclear area B-score, replicate 1": -1.32}
{"target": "Flad1 (Flavin adenine dinucleotide synthetase 1)", "DRSC id": "DRSC19898", "droplet/nuclear area B-score, replicate 1": -0.0452}
{"target": "Vha16-4 + CG15614", "DRSC id": "DRSC07321", "droplet/nuclear area B-score, replicate 1": 0.0273}
{"target": "Smyd3 (SET and MYND domain containing, class 3)", "DRSC id": "DRSC17744", "droplet/nuclear area B-score, replicate 1": -1.5}
{"target": "Mlc1 (Myosin alkali light chain 1)", "DRSC id": "DRSC16740", "droplet/nuclear area B-score, replicate 1": 2.12}
{"target": "RpS26 (Ribosomal protein S26)", "DRSC id": "DRSC03420", "droplet/nuclear area B-score, replicate 1": 2.42}
{"target": "Obp58c (Odorant-binding protein 58c)", "DRSC id": "DRSC04166", "droplet/nuclear area B-score, replicate 1": 0.644}
{"target": "Fancm (Fanconi anemia group M helicase)", "DRSC id": "DRSC16348", "droplet/nuclear area B-score, replicate 1": 0.173}
{"target": "CG31368", "DRSC id": "DRSC14949", "droplet/nuclear area B-score, replicate 1": 0.731}
{"target": "CG31368", "DRSC id": "DRSC14951", "droplet/nuclear area B-score, replicate 1": 0.197}
{"target": "ppk19 (pickpocket 19)", "DRSC id": "DRSC15321", "droplet/nuclear area B-score, replicate 1": 0.638}
{"target": "Rcc1 (Regulator of chromosome condensation 1)", "DRSC id": "DRSC09684", "droplet/nuclear area B-score, replicate 1": -0.0263}
{"target": "CG8939", "DRSC id": "DRSC20127", "droplet/nuclear area B-score, replicate 1": -0.532}
{"target": "lz (lozenge)", "DRSC id": "DRSC18790", "droplet/nuclear area B-score, replicate 1": 0.189}
{"target": "lz (lozenge)", "DRSC id": "DRSC22302", "droplet/nuclear area B-score, replicate 1": 0.552}
{"target": "ctrip (circadian trip)", "DRSC id": "DRSC12242", "droplet/nuclear area B-score, replicate 1": -2.05}
{"target": "ctrip (circadian trip)", "DRSC id": "DRSC12287", "droplet/nuclear area B-score, replicate 1": -1.61}
{"target": "ctrip (circadian trip)", "DRSC id": "DRSC22449", "droplet/nuclear area B-score, replicate 1": -3.03}
{"target": "shakB (shaking B)", "DRSC id": "DRSC20585", "droplet/nuclear area B-score, replicate 1": -1.14}
{"target": "shakB (shaking B)", "DRSC id": "DRSC22817", "droplet/nuclear area B-score, replicate 1": 0.771}
{"target": "CG4133", "DRSC id": "DRSC00639", "droplet/nuclear area B-score, replicate 1": 0.362}
{"target": "CG4133", "DRSC id": "DRSC23122", "droplet/nuclear area B-score, replicate 1": -0.489}
{"target": "Trax (Translin associated factor X)", "DRSC id": "DRSC15709", "droplet/nuclear area B-score, replicate 1": 0.674}
{"target": "Mer (Merlin)", "DRSC id": "DRSC20259", "droplet/nuclear area B-score, replicate 1": -1.31}

Not a retest: entries from further up.
{"target": "Rcc1 (Regulator of chromosome condensation 1)", "DRSC id": "DRSC09684", "droplet/nuclear area B-score, replicate 1": -0.0263}
{"target": "CG8939", "DRSC id": "DRSC20127", "droplet/nuclear area B-score, replicate 1": -0.532}
{"target": "lz (lozenge)", "DRSC id": "DRSC18790", "droplet/nuclear area B-score, replicate 1": 0.189}
{"target": "lz (lozenge)", "DRSC id": "DRSC22302", "droplet/nuclear area B-score, replicate 1": 0.552}
{"target": "ctrip (circadian trip)", "DRSC id": "DRSC12242", "droplet/nuclear area B-score, replicate 1": -2.05}
